Test results: PubChem BioAssay AID504847 (National Center for Advancing Translational Sciences (NCATS), 2011)
Values joined by “and” are separate entries in the source; they are usually repeats but may differ in a detail not shown here. Equal entries are not always repeated. About 3,700 (0.93%) of roughly 400,000 compounds were called active. Inconclusive results, whose numbers are uncertain, are shown with a selection of clear calls. Calls follow the shape of the dose curve; as a rule, active = well fitted inhibition curve with a large enough effect; inconclusive = small, poorly fitted or top-dose-only effect, or another doubt; inactive = no such curve, though single readings can be large or run the other way. Potencies beside an inconclusive call are fits to weak or partial responses and may not hold up.

Sequences of proteins named here, by UniProt entry; tags and fusion partners are left off. A change or cut given only in a name is not applied to a line headed by its entry.
UniProt P11473: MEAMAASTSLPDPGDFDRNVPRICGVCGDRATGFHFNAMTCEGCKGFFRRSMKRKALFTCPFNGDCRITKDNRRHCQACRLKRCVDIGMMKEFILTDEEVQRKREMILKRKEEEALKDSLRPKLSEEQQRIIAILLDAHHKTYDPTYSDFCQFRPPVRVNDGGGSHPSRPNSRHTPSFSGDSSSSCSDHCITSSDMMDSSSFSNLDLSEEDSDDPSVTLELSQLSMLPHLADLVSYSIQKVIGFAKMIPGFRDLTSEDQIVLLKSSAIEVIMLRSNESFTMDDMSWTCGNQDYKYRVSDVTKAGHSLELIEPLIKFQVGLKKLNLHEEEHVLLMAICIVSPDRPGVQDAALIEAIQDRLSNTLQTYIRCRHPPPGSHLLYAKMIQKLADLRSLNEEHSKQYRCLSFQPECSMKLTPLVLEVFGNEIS

Target: Vitamin D3 receptor (Homo sapiens) (UniProt P11473)
Assay: Inhibitors of the vitamin D receptor (VDR): qHTS
Settings: VDR-SRC2-3 peptide fluorescence polarization, 2 h; max response, negative = inhibition: active compounds read low
In short: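 The screen uses fluorescence polarization to detect compounds that interfere with recruitment of the SRC2-3 coactivator peptide to VDR; plates are read after 2 h at room temperature.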
% is scaled to controls: 0 for no effect and ±100 for the full control effect; potency is read from the fitted curve at half-maximal effect.

Potency, active:
O=C(Nc1ccccc1Cl)/C(Cl)=C(\Cl)S(=O)c1ccccc1 (configuration not stated) 3.98 µM, C=C1c2cccc(O)c2C(O)=C2C(=O)[C@]3(O)C(O)=C(C(N)=O)C(=O)C(N(C)C)C3C(O)C12 (some centres not stated) 35.5 µM, O=C(/C(=C/c1cccnc1)n1ccnc1)c1ccc(Cl)cc1Cl 50.1 µM, CCC(C)(C)c1nnc(NC(=O)C2CCN(C(=O)c3ccco3)CC2)s1 50.1 µM, CC(=O)N1c2ccc(S(=O)(=O)N3CCC(C(=O)NCc4ccc(Cl)cc4)CC3)cc2CC1C (configuration not stated) 25.1 µM, CN1CCC(=NNC(=O)C(=O)Nc2cccc(Br)c2)CC1 70.8 µM, O=C(Oc1ccccc1C(=S)N1CCCCC1)c1cc([N+](=O)[O-])cc([N+](=O)[O-])c1 89.1 µM

Potency, inconclusive:
CCC(NC(=O)c1ccccc1NC(=O)C(C)(C)C)C(=O)N1CCCC1 (configuration not stated) 89.1 µM [inhibitor, single point], Cc1ccc(CNC(=O)CSc2c3c(nc4cc(Cl)ccc24)CCCC3)o1 70.8 µM [inhibitor, partial curve, poor fit], CCC1Sc2ccc(S(=O)(=O)CCC(=O)Nc3ccc(C(=O)OC)cc3)cc2NC1=O (configuration not stated) 20 µM [inhibitor, single point], CCOc1ccc(-c2cc(OC(=O)c3ccccc3)c3c(C)oc(C)c3c(=O)c2)cc1 56.2 µM [inhibitor, partial curve, poor fit], O=C(c1ccco1)N1CCC2(CC1)CCN(c1ncccn1)CC2 44.7 µM [inhibitor, partial curve], CCCCCC(=O)NNC(=S)NC(=O)c1cccc([N+](=O)[O-])c1 89.1 µM [inhibitor, single point], O=C(Oc1ccc(C(=S)N2CCOCC2)cc1)c1ccc(F)cc1 70.8 µM [inhibitor, single point], Cc1nc2ccc(NC(=O)NC(=O)c3c(Cl)cccc3Cl)cc2o1 89.1 µM [inhibitor, single point], CN1C(=O)c2ccccc2C(C(=O)O)C1c1cn(C)c2ccccc12 (configuration not stated) 39.8 µM [inhibitor, partial curve], O=C1NC(=S)S/C1=C\c1cc(Cl)cc(Cl)c1O 89.1 µM [inhibitor, single point], COC(=O)c1ccc(-n2nc(C(F)(F)F)c3c2-c2ccoc2CC3)cc1 89.1 µM [inhibitor, partial curve], Cn1c(N=Cc2ccc([N+](=O)[O-])cc2)c(N)c(=O)n(C)c1=O 79.4 µM [inhibitor, single point], CCS(=O)(=O)C1=NN2C(=N)/C(=C\c3ccc(OC(=O)c4ccco4)c(OC)c3)C(=O)N=C2S1 56.2 µM [inhibitor, partial curve, poor fit], CCc1ccc(CN2CCN(C(=O)c3cccc(OC)c3OC)CC2)cc1 5.62 µM [inhibitor, full curve, poor fit], CC(C)Cc1nnc(NC(=O)CCc2ccccc2)s1 50.1 µM [inhibitor, partial curve, poor fit], COC(=O)c1c(NC(=O)CCCOc2ccc(C)cc2)sc2c1C(C(=O)OC)CC2 (configuration not stated) 15.8 µM [inhibitor, full curve, poor fit], CCOC(=O)/C=C(/C)N1N=C(c2ccc(OC)cc2)CC1c1cccc([N+](=O)[O-])c1 (configuration not stated) 50.1 µM [inhibitor, partial curve], Cc1ccc(N2C(=O)S/C(=C/c3cn(C)c4ccccc34)C2=O)cc1 89.1 µM [inhibitor, single point], Cc1cccc(C)c1NC(=O)C(Cl)C(=O)c1ccccc1 (configuration not stated) 3.16 µM [inhibitor, full curve, poor fit], Cc1nc(Nc2cc(F)ccc2C)c2nnn(Cc3ccccc3)c2n1 39.8 µM [inhibitor, single point], CCOC(=O)/C(=C\c1ccccc1)C(=O)CCN1CCOCC1 70.8 µM [inhibitor, partial curve], Cc1ccc(NC(=O)CN(C)C(=O)c2cc(-c3ccco3)nc3ccccc23)cc1 89.1 µM [inhibitor, single point], CCOc1ccc(N=C2NC(=O)/C(=C/C(=O)OC)S2)cc1 39.8 µM [inhibitor, partial curve], Cc1noc(/C=C/c2cccnc2)c1[N+](=O)[O-] 79.4 µM [inhibitor, single point], CC(=O)NNC(=O)CC(=O)Nc1nc(C23CC4CC(CC(C4)C2)C3)cs1 100 µM [inhibitor, partial curve, poor fit], CC(=O)Nc1sc(C)c(C)c1C(=O)OCC(=O)N(C)C1CCS(=O)(=O)C1 (configuration not stated) 100 µM [inhibitor, single point], COc1ccccc1CNc1ncncc1-c1ccccc1Cl 50.1 µM [inhibitor, partial curve], O=C(NCC1CCCCC1)c1ccc(Br)o1 89.1 µM [inhibitor, single point], COc1ccc(Br)cc1/C=C/C(=O)NC(=S)Nc1ccc(Cl)c(C(=O)O)c1 70.8 µM [inhibitor, partial curve, poor fit], CNC(=O)C1=NCCCc2cc(OC)c(OC)cc21 100 µM [inhibitor, single point], O=C(Nc1ccccc1)c1nc[nH]c1C(=O)N1CCN(c2ccccc2)CC1 100 µM [inhibitor, partial curve, poor fit], O=C1C=C(N(CCO)Cc2ccccc2)c2ccccc2C1=O 56.2 µM [inhibitor, partial curve, poor fit], O=C(O)CCC(=O)Nc1sc2c(c1C(=O)Nc1cccc3ccccc13)CCCCC2 100 µM [inhibitor, single point], C/C(=N\N=C1\NC(=O)C(CC(=O)Nc2ccc(Cl)cc2)S1)c1ccco1 (configuration not stated) 89.1 µM [inhibitor, partial curve, poor fit], Cc1cnccc1CN(C)C(=O)C1CCC(=O)N(Cc2ccccc2F)C1 (configuration not stated) 89.1 µM [inhibitor, single point], CCCCC(=O)NNC(=S)NC(=O)c1cccc([N+](=O)[O-])c1 3.98 µM [inhibitor, full curve], O=Cc1cc(N=Nc2ccc(S(=O)(=O)O)cc2)ccc1O 89.1 µM [inhibitor, single point], O/N=C/c1cc(Br)ccc1OCc1ccc(F)cc1 79.4 µM [inhibitor, partial curve], Cc1ccc(C(NC(=O)N2CCN(C)CC2)C(Cl)Cl)cc1F (configuration not stated) 89.1 µM [inhibitor, single point], O=C1C(Cl)=C(N2CCCCC2)C(=O)N1c1ccccc1 89.1 µM [inhibitor, partial curve, poor fit]

Max response, negative = inhibition, inactive:
COCCn1c(C)cc(/C=C2/NC(=O)N(c3ccc(Cl)cc3)C2=O)c1C -14.4%, NC(=O)N/N=C/c1ccc([N+](=O)[O-])o1 -5.32% and -2.31% and -3.88%, CCN(CC)C(=O)C1CCCN(C/C(C)=C/c2ccccc2)C1 (configuration not stated) -2.18%, COc1cccc(CN(C)C(=O)c2cc(S(=O)(=O)N3CCN(c4ccccc4)CC3)ccc2Cl)c1 9.04%, O=C(c1ccccc1)N1CCN(Cc2ccccc2)CC1 -5.33%, COc1ccc(Nc2cc(C)nc(NCc3ccccc3)n2)cc1 15.4%, CCOC(=O)C1=C(C)N(c2ccc(OC)cc2)C(=O)/C1=C\c1cccs1 30.6%, Clc1cc(Br)ccc1OCCOCCN1CCOCC1 17.7%, COc1ccc(-c2ccc(NS(=O)(=O)c3ccc(F)c(C(F)(F)F)c3)cc2)nn1 13.1%, O=C(c1ccc(N2CCN(C(=O)c3ccccc3Br)CC2)cc1)c1cccc(F)c1 32.2%, O=C(Nc1ccc(/C=C/c2nc3ccccc3o2)cc1)c1ccc(F)cc1 -0.753%, Cc1ccc(-c2cc(C(=O)N3CCN(c4ccc(F)cc4)CC3)c3ccccc3n2)o1 -0.423%, Cc1ccc(C(=O)CN2C(=O)C(C)Oc3ccccc32)cc1 (configuration not stated) -18.6%, O=C(CN(c1cccc(Br)c1)S(=O)(=O)c1ccccc1)N1CCc2ccccc2C1 -7.31%, COc1ccc(S(=O)(=O)N2c3ccc(Cl)cc3[C@](O)(c3ccccc3Cl)[C@@H]2C(=O)N2CCC[C@H]2C(N)=O)cc1OC -11.5%, O=C1CC(c2nc3ccccc3n2CCCOc2ccccc2)CN1c1ccc(F)cc1 (configuration not stated) 16.7%, Nc1ccc2c3c(cccc13)-c1ccccc1-2 -15.2%, CCCCN(C)C1=Nc2cccc3cccc1c23 12.3%, Cc1ccc2oc(=O)c3cnn(CC(=O)Nc4cccc(C(F)(F)F)c4)c3c2c1 -16.7%, Cc1ccc(N(C(=O)CS(=O)CC(=O)Nc2ccc(F)cc2)C(C)C(=O)NC(C)(C)C)cc1 (configuration not stated) 0.431%
